PubChem BioAssay AID504764 – Drosophila RNAi Screening Center | 2011
The deposit covers about 22,000 reagents; below is an unselected part of those with a known target gene and a result. Over the whole deposit, 403 (1.9%) got an active call. 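Unnormalised raw counts per well; ratio z-scores behind the hit calls and whether each hit raises or lowers signal are not deposited.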 The numbers tell different reagents against one gene apart. A plus sign joins genes that one reagent is predicted to hit. The record does not give: the amount of reagent.

Assay: 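Knock-downs that raise or lower a Notch target reporter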 (primary screen)
Cell system: Drosophila Kc167 cells
Reagents: long dsRNA against Drosophila genes
Duration: about 5 days (4 days dsRNA, then 24 h after transfection)
Conditions: transfection of constitutively active membrane-tethered Notch lacking the extracellular domain, read 24 h later
Read-out: 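Firefly luciferase from an E(spl)m3 reporter with active Notch, plus control-promoter and uninduced reporter wells for normalisation; unnormalised counts, duplicate wells a and b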
Reading the numbers: induced reporter light, run 1, well a and induced reporter light, run 1, well b: higher = more light from the Notch target reporter with active Notch; control promoter light, run 1, well a and control promoter light, run 1, well b: higher = more light from the viral control promoter (cell number, transfection, viability); uninduced reporter light, run 1, well a: higher = more light from the Notch target reporter without active Notch
Call rule: 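Hit if the duplicate-averaged log2 ratio of induced to control-promoter light gives a plate-wise z beyond ±2, or induced to uninduced beyond ±1.8; weak-control or discordant-duplicate wells dropped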
Meaning of the calls: active = modifier hit (raised or lowered Notch signal); inactive = not a hit

no.	predicted target	reagent no.	induced reporter light, run 1, well a	induced reporter light, run 1, well b	control promoter light, run 1, well a	control promoter light, run 1, well b	uninduced reporter light, run 1, well a	Outcome
1	flr (flare)	1	1.10e5	1.11e5	98770	56525	10982	inactive
2	CG31635	1	2.27e5	2.00e5	2.03e5	2.16e5	14160	inactive
3	CG31635	2	1.16e5	1.29e5	1.06e5	84500	13220	inactive
4	coro (Coronin)	1	65950	81900	58205	60795	4275	inactive
5	CysRS (Cysteinyl-tRNA synthetase)	1	1.02e5	1.28e5	2.02e5	2.11e5	9310	inactive
6	stretch (retired record)	1	4575	3785	6695	5820	305	inactive
7	stretch (retired record)	2	84775	98850	84330	76210	7640	inactive
8	stretch (retired record)	3	70005	95145	97625	62735	3992	inactive
9	stretch (retired record)	4	9000	9945	11188	11685	2475	inactive
10	stretch (retired record)	5	79180	96930	1.23e5	97540	6555	inactive
11	Lcp65Ab2 + Lcp65Ab1	1	1.62e5	1.23e5	1.48e5	1.16e5	6475	inactive
12	Lcp65Ab2 + Lcp65Ab1	2	2.50e5	2.39e5	2.46e5	2.37e5	11485	inactive
13	CG32457	1	2.35e5	2.23e5	2.09e5	2.90e5	14240	inactive
14	cora (coracle)	1	84040	72310	99790	1.11e5	6970	inactive
15	CG11741	1	88980	89470	84555	64945	7000	inactive
16	bin3 (bicoid-interacting protein 3)	1	1.75e5	1.18e5	1.49e5	1.53e5	12785	active
17	Skp2 + CG1103	1	1.29e5	1.37e5	1.08e5	89085	9030	inactive
18	S1P (Site-1 protease)	1	49885	38185	46000	37990	3335	inactive
19	MBD-R2	1	46975	53385	51550	48240	2500	inactive
20	CG15741	1	1.05e5	1.17e5	2.42e5	2.43e5	8865	inactive
21	Alp7 (Alkaline phosphatase 7)	1	43360	27355	42300	49365	1630	inactive
22	ODA-Dnal1 (Outer dynein arm dynein axonemal light chain 1)	1	1.96e5	2.22e5	2.52e5	2.30e5	20092	inactive
23	E(spl)m3-HLH (Enhancer of split m3, helix-loop-helix)	1	21075	16600	10790	14155	4665	inactive
24	CG11294	1	71150	72745	1.13e5	1.04e5	7965	inactive
25	Cyp6a17 (Cytochrome P450 6a17)	1	1.54e5	1.60e5	1.58e5	1.48e5	10595	inactive
26	TP53INP (Tumor protein p53 inducible nuclear protein)	1	1.50e5	1.14e5	1.35e5	78395	11350	active
27	Prp40 (pre-mRNA processing factor 40)	1	99410	1.20e5	1.17e5	1.34e5	11590	inactive
28	dsf (dissatisfaction)	1	1.21e5	1.18e5	36955	35550	8610	inactive
29	Rh50	1	1.49e5	1.25e5	93230	59745	12195	inactive
30	CG17167	1	1.05e5	1.01e5	1.05e5	1.56e5	10845	inactive
31	CG17167	2	1.26e5	1.08e5	1.41e5	1.62e5	12630	inactive
32	CG12898	1	1.84e5	2.23e5	2.55e5	2.43e5	17800	inactive
33	dsh (dishevelled)	1	99675	96745	1.77e5	1.77e5	7775	inactive
34	byn (brachyenteron)	1	2.04e5	1.62e5	3.06e5	1.97e5	11545	inactive
35	CG9331	1	1.65e5	1.84e5	99950	1.44e5	10445	inactive
36	CG42500	1	2.96e5	2.78e5	2.65e5	2.76e5	22005	inactive
37	CG14743	1	2.01e5	1.93e5	1.90e5	1.96e5	17920	inactive
38	Agxt (Alanine-glyoxylate aminotransferase)	1	2.06e5	1.81e5	2.51e5	2.27e5	13765	inactive
39	CG32106	1	2.86e5	2.49e5	3.20e5	3.87e5	26490	inactive
40	Paip2 (polyA-binding protein interacting protein 2)	1	1.41e5	1.45e5	1.02e5	94940	8980	inactive
41	CG18294 + 825-Oak + CG32214 + 2 more	1						inactive
42	Dp1 (Dodeca-satellite-binding protein 1)	1	85785	93360	1.35e5	1.25e5	6390	inactive
43	Cp15 (Chorion protein 15)	1	2.12e5	1.67e5	1.95e5	1.85e5	9255	inactive
44	CG10991 (retired record)	1	1.11e5	1.19e5	96075	87075	8882	inactive
45	Syx8 (Syntaxin 8)	1	1.97e5	1.57e5	1.96e5	1.70e5	11578	inactive
46	Syx8 (Syntaxin 8)	2						inactive
47	CG5890	1	1.77e5	1.50e5	1.93e5	2.19e5	13600	inactive
48	CG14246	1	1.38e5	1.53e5	2.24e5	2.54e5	13430	inactive
49	Obp44a (Odorant-binding protein 44a)	1	2.05e5	1.93e5	2.29e5	2.10e5	15120	inactive
50	CG1275	1	65640	55505	87635	70150	4345	inactive
